The list shows a part of the results. Residues, ends and D or L forms follow the SMILES beside them. *: point of attachment. Cbz = O=C(OCc1ccccc1)*
Experiments:
Experiment in all cases: log2 fold change, soluble protein after heating vs DMSO (PISA); higher = thermal stabilisation; K562 cells, 10 uM, 30 min; active = over 0.2 and 3.5 SD of the protein, either way, in both replicates (recomputed)
erlotinib = compound: C#Cc1cccc(Nc2ncnc3cc(OCCOC)c(OCCOC)cc23)c1 [erlotinib]
Outline: (§1)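 Quantification of soluble protein used TMTpro 16plex LC-MS/MS, with channel sums equalised. Samples were the supernatant after 21,000xg for 90 min of pooled aliquots from K562 cells (2×10^6 cells/mL) treated with 10 μM compound for 30 min, heated for 3 min over 48°C-58°C, and extracted in PBS with 0.5% NP-40 at 4°C. Values, from duplicates, describe thermal stability against control samples on a log2 fold-change scale.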

Amino acid sequences for entries named in this document (tags omitted). A change or cut given only in a name is not applied to a line headed by its entry.
UniProt Q9HAP2: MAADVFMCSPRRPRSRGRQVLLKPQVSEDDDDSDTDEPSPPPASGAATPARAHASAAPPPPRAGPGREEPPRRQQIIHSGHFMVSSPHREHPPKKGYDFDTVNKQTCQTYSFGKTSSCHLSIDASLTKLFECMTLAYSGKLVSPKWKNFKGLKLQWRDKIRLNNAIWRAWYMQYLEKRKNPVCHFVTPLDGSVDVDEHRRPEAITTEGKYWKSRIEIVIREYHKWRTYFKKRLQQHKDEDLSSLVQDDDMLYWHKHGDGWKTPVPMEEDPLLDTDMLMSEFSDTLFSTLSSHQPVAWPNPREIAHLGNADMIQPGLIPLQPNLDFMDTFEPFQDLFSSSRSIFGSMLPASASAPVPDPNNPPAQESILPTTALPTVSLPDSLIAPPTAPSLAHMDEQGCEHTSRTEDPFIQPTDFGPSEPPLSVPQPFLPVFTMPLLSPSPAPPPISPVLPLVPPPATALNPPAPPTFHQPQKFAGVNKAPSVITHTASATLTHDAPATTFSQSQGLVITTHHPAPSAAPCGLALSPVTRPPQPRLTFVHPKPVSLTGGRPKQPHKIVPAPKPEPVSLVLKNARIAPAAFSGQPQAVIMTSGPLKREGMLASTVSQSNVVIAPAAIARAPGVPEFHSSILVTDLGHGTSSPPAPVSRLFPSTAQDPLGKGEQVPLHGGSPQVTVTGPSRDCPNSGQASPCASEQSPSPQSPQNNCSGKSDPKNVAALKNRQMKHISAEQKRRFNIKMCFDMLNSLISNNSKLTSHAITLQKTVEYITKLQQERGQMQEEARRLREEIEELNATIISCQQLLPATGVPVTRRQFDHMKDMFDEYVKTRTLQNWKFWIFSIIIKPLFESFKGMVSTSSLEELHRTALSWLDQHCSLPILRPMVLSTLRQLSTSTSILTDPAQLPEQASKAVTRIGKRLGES
UniProt Q9Y3A3: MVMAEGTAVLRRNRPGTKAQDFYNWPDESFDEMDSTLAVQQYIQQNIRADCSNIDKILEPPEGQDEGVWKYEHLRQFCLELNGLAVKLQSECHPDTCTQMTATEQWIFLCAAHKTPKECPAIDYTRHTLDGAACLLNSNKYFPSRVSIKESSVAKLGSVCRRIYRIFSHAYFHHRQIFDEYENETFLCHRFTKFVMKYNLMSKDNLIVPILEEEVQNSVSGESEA
UniProt A9UHW6: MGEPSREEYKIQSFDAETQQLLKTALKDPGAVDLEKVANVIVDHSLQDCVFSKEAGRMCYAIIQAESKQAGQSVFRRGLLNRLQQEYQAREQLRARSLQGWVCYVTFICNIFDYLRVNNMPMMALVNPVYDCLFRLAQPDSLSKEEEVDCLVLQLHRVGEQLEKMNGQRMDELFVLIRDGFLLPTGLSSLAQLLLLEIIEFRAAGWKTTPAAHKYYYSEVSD
UniProt Q6IN84: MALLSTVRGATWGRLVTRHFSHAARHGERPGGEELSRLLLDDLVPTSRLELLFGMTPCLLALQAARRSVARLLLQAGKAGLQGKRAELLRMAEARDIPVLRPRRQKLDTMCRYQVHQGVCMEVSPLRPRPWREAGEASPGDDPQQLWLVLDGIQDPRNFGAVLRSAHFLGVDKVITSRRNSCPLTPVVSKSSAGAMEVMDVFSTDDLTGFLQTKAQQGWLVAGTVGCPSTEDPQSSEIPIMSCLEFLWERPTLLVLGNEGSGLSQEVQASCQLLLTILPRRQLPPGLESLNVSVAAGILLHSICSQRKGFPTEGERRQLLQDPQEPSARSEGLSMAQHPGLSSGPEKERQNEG
UniProt Q8N4V1: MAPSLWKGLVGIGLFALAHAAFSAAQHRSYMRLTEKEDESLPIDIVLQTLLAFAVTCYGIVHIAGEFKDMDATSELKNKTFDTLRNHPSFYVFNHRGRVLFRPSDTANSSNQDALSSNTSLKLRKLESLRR
UniProt Q7RTP6, whole entry, looked up: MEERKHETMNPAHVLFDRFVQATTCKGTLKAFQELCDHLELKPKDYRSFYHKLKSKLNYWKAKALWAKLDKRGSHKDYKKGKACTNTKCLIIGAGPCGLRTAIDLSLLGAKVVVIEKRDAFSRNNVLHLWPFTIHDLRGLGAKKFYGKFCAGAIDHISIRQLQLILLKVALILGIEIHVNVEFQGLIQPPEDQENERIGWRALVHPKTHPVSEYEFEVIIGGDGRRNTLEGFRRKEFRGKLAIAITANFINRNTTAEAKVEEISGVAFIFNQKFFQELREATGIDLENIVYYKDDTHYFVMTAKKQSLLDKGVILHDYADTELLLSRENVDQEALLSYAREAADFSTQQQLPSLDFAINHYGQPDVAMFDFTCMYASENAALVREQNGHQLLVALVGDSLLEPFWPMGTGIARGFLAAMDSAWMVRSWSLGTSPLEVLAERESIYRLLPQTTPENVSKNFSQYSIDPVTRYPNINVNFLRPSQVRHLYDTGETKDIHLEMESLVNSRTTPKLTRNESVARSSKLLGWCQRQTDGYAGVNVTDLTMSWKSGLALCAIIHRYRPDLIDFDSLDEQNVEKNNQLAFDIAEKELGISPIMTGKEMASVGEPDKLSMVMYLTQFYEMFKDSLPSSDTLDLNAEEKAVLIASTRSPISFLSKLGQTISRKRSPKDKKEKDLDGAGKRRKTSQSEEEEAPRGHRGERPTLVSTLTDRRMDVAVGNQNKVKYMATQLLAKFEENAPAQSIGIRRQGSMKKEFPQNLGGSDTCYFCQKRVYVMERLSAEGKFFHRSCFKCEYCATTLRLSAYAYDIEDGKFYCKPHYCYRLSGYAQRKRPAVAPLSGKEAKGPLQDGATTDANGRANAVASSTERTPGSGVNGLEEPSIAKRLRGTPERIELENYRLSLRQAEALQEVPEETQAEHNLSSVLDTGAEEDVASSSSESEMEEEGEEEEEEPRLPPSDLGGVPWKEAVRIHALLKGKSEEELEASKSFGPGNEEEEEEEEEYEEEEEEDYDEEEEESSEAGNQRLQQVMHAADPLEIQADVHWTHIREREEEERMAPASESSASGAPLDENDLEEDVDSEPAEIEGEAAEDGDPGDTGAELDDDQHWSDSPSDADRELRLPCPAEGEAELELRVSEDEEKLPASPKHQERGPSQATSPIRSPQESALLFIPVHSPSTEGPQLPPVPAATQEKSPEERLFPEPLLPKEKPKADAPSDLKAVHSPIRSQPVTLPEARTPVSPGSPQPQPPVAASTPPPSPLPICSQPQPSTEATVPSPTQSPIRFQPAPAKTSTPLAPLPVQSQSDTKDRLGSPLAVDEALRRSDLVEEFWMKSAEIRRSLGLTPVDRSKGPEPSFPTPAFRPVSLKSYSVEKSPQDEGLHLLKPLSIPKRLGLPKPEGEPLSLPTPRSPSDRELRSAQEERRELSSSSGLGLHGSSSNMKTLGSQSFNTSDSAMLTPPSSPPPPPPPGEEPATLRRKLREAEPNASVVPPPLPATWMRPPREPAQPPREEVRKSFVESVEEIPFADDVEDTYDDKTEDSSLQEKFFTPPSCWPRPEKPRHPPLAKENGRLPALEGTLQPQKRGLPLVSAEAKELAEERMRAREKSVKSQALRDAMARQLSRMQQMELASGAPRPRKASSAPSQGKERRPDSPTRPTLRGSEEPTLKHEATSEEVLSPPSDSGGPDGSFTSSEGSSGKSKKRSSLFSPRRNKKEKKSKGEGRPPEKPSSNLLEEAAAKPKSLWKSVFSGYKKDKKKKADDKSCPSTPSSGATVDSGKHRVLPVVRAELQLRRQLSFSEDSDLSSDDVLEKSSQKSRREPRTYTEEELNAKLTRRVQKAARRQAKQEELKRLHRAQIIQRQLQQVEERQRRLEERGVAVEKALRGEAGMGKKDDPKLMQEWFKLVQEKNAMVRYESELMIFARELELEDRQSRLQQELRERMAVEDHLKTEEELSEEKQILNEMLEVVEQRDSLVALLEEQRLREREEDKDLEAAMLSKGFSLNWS
UniProt Q99797: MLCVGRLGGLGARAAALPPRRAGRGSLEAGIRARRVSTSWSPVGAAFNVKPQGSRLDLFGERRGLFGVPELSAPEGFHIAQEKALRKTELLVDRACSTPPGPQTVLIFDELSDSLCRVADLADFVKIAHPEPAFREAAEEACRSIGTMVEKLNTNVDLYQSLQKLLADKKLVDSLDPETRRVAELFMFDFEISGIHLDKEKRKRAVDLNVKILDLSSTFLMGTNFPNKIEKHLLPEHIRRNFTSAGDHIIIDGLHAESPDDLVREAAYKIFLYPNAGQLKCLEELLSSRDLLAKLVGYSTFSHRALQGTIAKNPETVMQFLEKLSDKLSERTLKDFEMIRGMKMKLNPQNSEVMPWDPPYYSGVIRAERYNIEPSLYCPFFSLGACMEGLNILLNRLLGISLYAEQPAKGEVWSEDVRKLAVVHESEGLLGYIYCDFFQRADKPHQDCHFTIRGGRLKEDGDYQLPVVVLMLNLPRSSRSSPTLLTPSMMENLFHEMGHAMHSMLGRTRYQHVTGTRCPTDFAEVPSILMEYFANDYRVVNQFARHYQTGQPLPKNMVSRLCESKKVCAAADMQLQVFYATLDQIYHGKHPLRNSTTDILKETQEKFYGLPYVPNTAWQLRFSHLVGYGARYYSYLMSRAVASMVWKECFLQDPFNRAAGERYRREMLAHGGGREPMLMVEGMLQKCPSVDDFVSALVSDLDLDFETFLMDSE
UniProt Q8NHP6: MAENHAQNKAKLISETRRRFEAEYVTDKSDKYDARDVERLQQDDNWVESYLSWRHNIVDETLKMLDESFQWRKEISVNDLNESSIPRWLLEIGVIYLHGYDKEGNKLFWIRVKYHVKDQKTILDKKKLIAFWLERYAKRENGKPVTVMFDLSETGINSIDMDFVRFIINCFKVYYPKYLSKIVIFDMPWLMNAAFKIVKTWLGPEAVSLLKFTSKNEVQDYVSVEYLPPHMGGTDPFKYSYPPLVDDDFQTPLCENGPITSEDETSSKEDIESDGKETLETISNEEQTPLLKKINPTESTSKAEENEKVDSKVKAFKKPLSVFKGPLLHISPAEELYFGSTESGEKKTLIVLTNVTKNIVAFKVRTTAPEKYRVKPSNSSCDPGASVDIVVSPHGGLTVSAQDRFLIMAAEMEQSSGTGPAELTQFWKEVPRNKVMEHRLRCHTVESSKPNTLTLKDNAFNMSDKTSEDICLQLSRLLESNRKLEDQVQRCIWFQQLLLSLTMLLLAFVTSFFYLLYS
UniProt P29372, whole entry, looked up: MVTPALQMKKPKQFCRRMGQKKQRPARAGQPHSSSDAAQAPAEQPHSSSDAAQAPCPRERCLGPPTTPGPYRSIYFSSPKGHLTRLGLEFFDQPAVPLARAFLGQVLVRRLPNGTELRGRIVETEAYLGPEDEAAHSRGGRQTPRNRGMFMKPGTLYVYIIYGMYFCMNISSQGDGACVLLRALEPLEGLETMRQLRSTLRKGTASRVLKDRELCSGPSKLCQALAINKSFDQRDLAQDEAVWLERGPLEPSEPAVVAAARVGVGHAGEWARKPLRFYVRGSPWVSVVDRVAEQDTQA
UniProt O75352: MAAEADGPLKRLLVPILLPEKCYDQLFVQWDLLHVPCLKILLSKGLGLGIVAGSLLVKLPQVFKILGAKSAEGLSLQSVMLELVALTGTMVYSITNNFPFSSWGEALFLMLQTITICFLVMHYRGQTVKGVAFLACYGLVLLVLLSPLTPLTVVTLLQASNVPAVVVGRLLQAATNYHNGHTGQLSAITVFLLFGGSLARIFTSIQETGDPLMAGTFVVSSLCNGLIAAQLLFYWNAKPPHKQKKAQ
UniProt Q9NZB8: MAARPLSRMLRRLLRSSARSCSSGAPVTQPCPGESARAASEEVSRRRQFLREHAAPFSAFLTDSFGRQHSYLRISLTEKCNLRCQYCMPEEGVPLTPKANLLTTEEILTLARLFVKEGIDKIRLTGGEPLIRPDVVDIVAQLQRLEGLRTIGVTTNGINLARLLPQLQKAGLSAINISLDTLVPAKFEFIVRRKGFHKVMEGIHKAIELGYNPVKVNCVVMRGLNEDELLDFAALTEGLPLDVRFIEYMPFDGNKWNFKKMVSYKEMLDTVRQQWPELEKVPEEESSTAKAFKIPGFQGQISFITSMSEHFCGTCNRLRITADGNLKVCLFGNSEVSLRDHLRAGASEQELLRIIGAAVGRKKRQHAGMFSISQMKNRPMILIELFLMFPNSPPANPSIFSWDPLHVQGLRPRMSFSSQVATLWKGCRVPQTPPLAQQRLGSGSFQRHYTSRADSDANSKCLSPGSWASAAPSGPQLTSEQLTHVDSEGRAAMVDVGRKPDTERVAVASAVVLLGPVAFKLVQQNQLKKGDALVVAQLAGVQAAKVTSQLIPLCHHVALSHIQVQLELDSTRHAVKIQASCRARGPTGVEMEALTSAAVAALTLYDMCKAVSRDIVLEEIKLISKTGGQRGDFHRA

[1] = compound: C/C(=N\NC(=O)C1=CC(=CC=C1)S(=O)(=O)N2CCOCC2)/C3=C(C=CC(=C3)Cl)O
Outline: as §1

[2] = compound: C1=CC(=C(C=C1Cl)C2=NC3=NC=CN=C3C(=N2)NC4=CC=NC=C4)F
Outline: as §1

[3] = compound: C1=CC(=CC=C1C2=NC3=C(N2)C=C(C=C3)C(=O)N)OC4=CC=C(C=C4)Cl
Outline: as §1

[4] = compound: C1=CC2=C(C=CC(=C2)/C=C\3/C(=O)NC(=NCC4=CC=CS4)S3)N=C1
Outline: as §1

[5] = compound: C1=CC2=NC=CN=C2C=C1/C=C/3\C(=O)NC(=O)S3
Outline: as §1

[6] = compound: C1=CC=C(C=C1)C2=NC(=C(N2)C3=CC=NC=C3)C4=CC(=C(C=C4)Cl)O
Outline: as §1

[7] = compound: C1=CC=C2C(=C1)C3=NNC4=CC=CC(=C43)C2=O
Outline: as §1

[8] = compound: C1CCN(C1)C(=O)NC2=CC=CC(=C2)NC3=NC=C(C(=N3)NCCC4=CN=CN4)Br
Outline: as §1

[9] = compound: C1CN(CCC1(CC2=CC=C(C=C2)Cl)N)C3=NC=NC4=C3C=CN4
Outline: as §1

IRAK-1-4 Inhibitor I = compound: C1COCCN1CCN2C3=CC=CC=C3N=C2NC(=O)C4=CC(=CC=C4)[N+](=O)[O-] [IRAK-1-4 Inhibitor I]
Outline: as §1

ibrutinib = compound: C=CC(=O)N1CCC[C@@H](n2nc(-c3ccc(Oc4ccccc4)cc3)c3c(N)ncnc32)C1 [ibrutinib]
Outline: as §1

[10] = compound: CC(=O)c1cnc2ccc(-c3cc(Cl)c(O)c(Cl)c3)nc2c1N[C@H]1CC[C@H](CN(C)C)CC1
Outline: as §1

ralimetinib = compound: CC(C)(C)Cn1c(N)nc2ccc(-c3[nH]c(C(C)(C)C)nc3-c3ccc(F)cc3)nc21 [ralimetinib]
Outline: as §1

[11] = compound: CC(C)(O)CC(=O)NCCn1ccc2ncnc(Nc3ccc(Oc4cccc(C(F)(F)F)c4)c(Cl)c3)c21
Outline: as §1

[12] = compound: CC(C)C1=C2N=C(C=C(N2N=C1)NCC3=CC=CC=C3)NCCCCCCN
Outline: as §1

[13] = compound: CC(C)C[C@@H](C=O)NC(=O)[C@H](CC(C)C)NC(=O)[C@H](CC(C)C)NC(=O)OCc1ccccc1
Outline: as §1

pinometostat = compound: CC(C)N(C[C@H]1O[C@@H](n2cnc3c(N)ncnc32)[C@H](O)[C@@H]1O)[C@H]1C[C@@H](CCc2nc3cc(C(C)(C)C)ccc3[nH]2)C1 [pinometostat]
Outline: as §1

[14] = compound: CC1=C(C(CC(=O)N1)C2=CC=C(C=C2)C(F)(F)F)C(=O)NC3=C(C=C4C(=C3)C=NN4)F
Outline: as §1

[15] = compound: CC1=C(C2=C(C=C1)C(=O)C3=CC=CC=C3N2CCCN)C
Outline: as §1

Measured: log2 fold change

MLXIP (UniProt Q9HAP2)
inactive: erlotinib -0.013 | [1] 0.117 | [2] 0.111 | [3] 0.021 | [4] 0.085 | [5] -0.037 | [6] 0.104 | [7] 0.044 | [8] -0.013 | [9] 0.019 | IRAK-1-4 Inhibitor I 0.009 | ibrutinib -0.258 | [10] -0.254 | ralimetinib 0 | [11] -0.061 | [12] -0.063 | [13] -0.035 | pinometostat -0.094 | [14] 0.049 | [15] 0.02

MOB4 (UniProt Q9Y3A3)
inactive: erlotinib -0.056 | [1] 0.03 | [2] 0.069 | [3] 0.014 | [4] 0.009 | [5] 0.039 | [6] -0.004 | [7] -0.037 | [8] 0.024 | [9] 0.045 | IRAK-1-4 Inhibitor I 0.006 | ibrutinib -0.032 | [10] -0.081 | ralimetinib 0.011 | [11] -0.05 | [12] 0.031 | [13] 0.01 | pinometostat -0.006 | [14] -0.039 | [15] 0.035

MRPL45 (UniProt Q9BRJ2)
inactive: erlotinib -0.159 | [1] -0.071 | [2] -0.103 | [3] 0.081 | [4] 0.01 | [5] 0.011 | [6] -0.011 | [7] 0.132 | [8] -0.085 | [9] -0.195 | IRAK-1-4 Inhibitor I -0.083 | ibrutinib 0.013 | [10] 0.015 | ralimetinib 0.084 | [11] 0.016 | [12] 0 | [13] 0.06 | pinometostat 0.064 | [14] -0.051 | [15] -0.069

MIF4GD isoform 3 (UniProt A9UHW6)
inactive: erlotinib 0.032 | [1] -0.038 | [2] -0.03 | [3] -0.002 | [4] 0.084 | [5] 0.055 | [6] -0.015 | [7] 0.013 | [8] 0.004 | [9] -0.028 | IRAK-1-4 Inhibitor I -0.033 | ibrutinib -0.038 | [10] -0.133 | ralimetinib -0.049 | [11] 0.034 | [12] 0.061 | [13] 0.056 | pinometostat 0.027 | [14] 0.041 | [15] 0.064

Taken from the results shown (two entries):
MOB4 (UniProt Q9Y3A3)
inactive: erlotinib -0.056 | [1] 0.03 | [2] 0.069 | [3] 0.014 | [4] 0.009 | [5] 0.039 | [6] -0.004 | [7] -0.037 | [8] 0.024 | [9] 0.045 | IRAK-1-4 Inhibitor I 0.006 | ibrutinib -0.032 | [10] -0.081 | ralimetinib 0.011 | [11] -0.05 | [12] 0.031 | [13] 0.01 | pinometostat -0.006 | [14] -0.039 | [15] 0.035

MRPL45 (UniProt Q9BRJ2)
inactive: erlotinib -0.159 | [1] -0.071 | [2] -0.103 | [3] 0.081 | [4] 0.01 | [5] 0.011 | [6] -0.011 | [7] 0.132 | [8] -0.085 | [9] -0.195 | IRAK-1-4 Inhibitor I -0.083 | ibrutinib 0.013 | [10] 0.015 | ralimetinib 0.084 | [11] 0.016 | [12] 0 | [13] 0.06 | pinometostat 0.064 | [14] -0.051 | [15] -0.069

(list continues)

MRM1 (UniProt Q6IN84)
inactive: erlotinib -0.098 | [1] -0.141 | [2] -0.345 | [3] 0.127 | [4] -0.097 | [5] 0.012 | [6] -0.04 | [7] 0.022 | [8] 0.035 | [9] -0.127 | IRAK-1-4 Inhibitor I -0.042 | ibrutinib 0.03 | [10] 0.056 | ralimetinib 0.036 | [11] 0.095 | [12] -0.059 | [13] 0.044 | pinometostat 0.118 | [14] 0.058 | [15] -0.183

MRPL17 (UniProt Q9NRX2)
inactive: erlotinib -0.025 | [1] -0.044 | [2] -0.121 | [3] 0.117 | [4] -0.044 | [5] 0.019 | [6] -0.05 | [7] 0.075 | [8] 0.095 | [9] -0.115 | IRAK-1-4 Inhibitor I -0.106 | ibrutinib -0.049 | [10] 0.075 | ralimetinib 0 | [11] 0.002 | [12] -0.015 | [13] 0.12 | pinometostat 0.114 | [14] -0.012 | [15] 0.055

MMGT1 (UniProt Q8N4V1)
inactive: erlotinib -0.001 | [1] 0.085 | [2] 0.106 | [3] 0.036 | [4] 0.104 | [5] -0.029 | [6] -0.049 | [7] -0.025 | [8] 0.012 | [9] -0.025 | IRAK-1-4 Inhibitor I 0.038 | ibrutinib -0.038 | [10] 0.028 | ralimetinib -0.007 | [11] -0.012 | [12] -0.01 | [13] -0.056 | pinometostat -0.031 | [14] -0.055 | [15] 0.063

MRPL38 (UniProt Q96DV4)
inactive: erlotinib -0.167 | [1] -0.125 | [2] -0.194 | [3] 0.114 | [4] -0.058 | [5] -0.021 | [6] -0.006 | [7] 0.146 | [8] 0.033 | [9] -0.215 | IRAK-1-4 Inhibitor I -0.08 | ibrutinib -0.007 | [10] 0.073 | ralimetinib 0.048 | [11] 0.016 | [12] 0.008 | [13] 0.093 | pinometostat 0.141 | [14] -0.026 | [15] -0.115

MICAL3 (UniProt Q7RTP6)
inactive: erlotinib 0.067 | [1] -0.049 | [2] 0.008 | [3] -0.001 | [4] 0.112 | [5] -0.013 | [6] -0.113 | [7] -0.003 | [8] 0.073 | [9] -0.005 | IRAK-1-4 Inhibitor I 0.04 | ibrutinib -0.013 | [10] -0.032 | ralimetinib -0.145 | [11] -0.029 | [12] -0.094 | [13] 0.053 | pinometostat -0.051 | [14] 0.037 | [15] 0.043

MIPEP (UniProt Q99797)
inactive: erlotinib 0.005 | [1] 0 | [2] 0.092 | [3] 0.028 | [4] 0.055 | [5] 0.013 | [6] -0.021 | [7] -0.005 | [8] -0.025 | [9] 0.077 | IRAK-1-4 Inhibitor I 0.008 | ibrutinib 0.005 | [10] -0.053 | ralimetinib -0.109 | [11] -0.06 | [12] -0.009 | [13] 0.014 | pinometostat -0.053 | [14] -0.016 | [15] 0.042

MOSPD2 (UniProt Q8NHP6)
inactive: erlotinib 0.02 | [1] 0.085 | [2] -0.015 | [3] 0.006 | [4] -0.036 | [5] 0.042 | [6] 0.07 | [7] -0.006 | [8] -0.011 | [9] 0.013 | IRAK-1-4 Inhibitor I -0.008 | ibrutinib 0.134 | [10] -0.025 | ralimetinib -0.038 | [11] 0.087 | [12] 0.042 | [13] 0.108 | pinometostat 0.069 | [14] 0.011 | [15] -0.012

MPG (UniProt P29372)
inactive: erlotinib -0.016 | [1] -0.07 | [2] -0.113 | [3] -0.002 | [4] -0.004 | [5] -0.008 | [6] 0.083 | [7] -0.012 | [8] -0.003 | [9] -0.04 | IRAK-1-4 Inhibitor I -0.21 | ibrutinib 0.036 | [10] 0.077 | ralimetinib 0.158 | [11] 0.073 | [12] -0.02 | [13] 0.043 | pinometostat 0 | [14] -0.003 | [15] 0.024

MPDU1 (UniProt O75352)
inactive: erlotinib -0.008 | [1] 0.069 | [2] 0.059 | [3] 0.001 | [4] 0.012 | [5] -0.002 | [6] -0.089 | [7] 0.011 | [8] 0.018 | [9] 0.136 | IRAK-1-4 Inhibitor I 0.022 | ibrutinib -0.021 | [10] -0.049 | ralimetinib -0.254 | [11] 0.025 | [12] 0.078 | [13] -0.154 | pinometostat -0.237 | [14] -0.006 | [15] 0.164

MRPL16 (UniProt Q9NX20)
inactive: erlotinib -0.168 | [1] -0.112 | [2] -0.073 | [3] 0.051 | [4] -0.026 | [5] 0.011 | [6] -0.006 | [7] 0.073 | [8] -0.027 | [9] -0.196 | IRAK-1-4 Inhibitor I -0.053 | ibrutinib -0.032 | [10] 0.151 | ralimetinib 0.102 | [11] 0.037 | [12] 0.039 | [13] 0.083 | pinometostat 0.148 | [14] 0.064 | [15] -0.163

MOCS1 isoform 8 (UniProt Q9NZB8)
inactive: erlotinib 0.06 | [1] -0.043 | [2] 0.055 | [3] -0.022 | [4] 0.041 | [5] 0.098 | [6] -0.044 | [7] -0.009 | [8] -0.031 | [9] 0.053 | IRAK-1-4 Inhibitor I 0.049 | ibrutinib 0.162 | [10] -0.095 | ralimetinib -0.052 | [11] -0.184 | [12] 0.025 | [13] 0.006 | pinometostat -0.077 | [14] 0.033 | [15] -0.032

Reference: the supplement of paper PMC10849652
